In US20160209428A1, “DIAGNOSTIC AND PREDICTIVE METABOLITE PATTERNS FOR DISORDERS AFFECTING THE BRAIN AND NERVOUS SYSTEM” (THE REGENTS OF THE UNIVERSITY OF CALIFORNIA, priority 2013, published 2016):

System: not listed separately
Test: PTSD metabolomics: LC-MS/MS of metabolites, PTSD subjects vs controls, PLSDA
Parameters: species or system human
Conditions: ratio of metabolite amount, 18 PTSD vs 20 control
2-Octenoylcarnitine showed a PTSD/Control of 1.448.
Compound 3-Hydroxyhexadecanoylcarnitine has a PTSD/Control of 0.8834.
For `Nc1c(O)cccc1C(=O)O` [3-Hydroxyanthranilic acid], the PTSD/Control was 1.253.

System: Fragile X (Fmr1) knockout mouse
Test: Plasma metabolomics after weekly suramin or saline, Fragile X model
Format: in vivo
Conditions: KO-Suramin vs KO-Saline, Fmr1 knockout mice, PLSDA
Protocol: Samples were analyzed on an AB SCIEX QTRAP 5500 triple quadrupole mass spectrometer equipped with a Turbo V electrospray ionization (ESI) source, Shimadzu LC-20A UHPLC system, and a PAL CTC autosampler (AB ACIEX, Framingham, Mass., USA). […] Plasma was separated by centrifugation at 600 g×5 minutes at 20° C. within one hour of collection. Fresh lithium-heparin plasma was transferred to labeled tubes for storage at −80° C. for analysis. Typically 45 μl of plasma was thawed on ice and transferred to a 1.7 ml Eppendorf tube. Two and one-half (2.5) μl of a cocktail containing 35 commercial stable isotope internal standards, and 2.5 μl of 310 stable isotope internal standards that were custom-synthesized in E. coli and S. cerevisiae by metabolic labeling with ^13C-glucose and ^13C-bicarbonate, were added, mixed, and incubated for 10 min at room temperature to permit small molecules and vitamins in the internal standards to associate with plasma binding proteins. Macromolecules (protein, DNA, RNA, etc.) were precipitated by extraction with 4 volumes (200 μl) of cold (−20° C.), acetonitrile:methanol (50:50) (LCMS grade, Cat#LC015-2.5 and GC230-4, Burdick & Jackson, Honeywell), vortexed vigorously, and incubated on crushed ice for 10 min, then removed by centrifugation at 16,000 g×10 min at 4° C. The supernatants containing the extracted metabolites and internal standards in the resulting 40:40:20 solvent mix of acetonitrile:methanol:water were transferred to labeled cryotubes and stored at −80° C. for LC-MS/MS (liquid chromatography-tandem mass spectrometry) analysis.
LC-MS/MS analysis was performed by multiple reaction monitoring (MRM) under Analyst v1.6.1 (AB SCIEX, Framingham, Mass., USA) software control in both negative and positive mode with rapid polarity switching (50 ms). Nitrogen was used for curtain gas (set to 30), collision gas (set to high), ion source gas 1 and 2 (set to 35). The source temperature was 500° C. Spray voltage was set to −4500 V in negative mode and 5500 V in positive mode. The values for Q1 and Q3 mass-to-charge ratios (m/z), declustering potential (DP), entrance potential (EP), collision energy (CE), and collision cell exit potential (CXP) were determined and optimized for each MRM for each metabolite. Ten microliters of extract was injected by PAL CTC autosampler into a 250 mm×2 mm, 5 μm Luna NH2 aminopropyl HPLC column (Phenomenex, Torrance, Calif., USA) held at 25° C. for chromatographic separation. […] The flow rate was 300 μl/min. All the samples were kept at 4° C. during analysis. The chromatographic peaks were identified using MultiQuant (v3.0, AB SCIEX), confirmed by manual inspection, and the peak areas integrated. The median of the peak area of stable isotope internal standards was calculated and used for the normalization of metabolites concentration across the samples and batches. Prior to multivariate and univariate analysis, the data were log-transformed.
A rendering of mammalian intermediary metabolism was constructed in Cytoscape v 3.1.1 (see, e.g., [http://]www.cytoscape.org/). […] Nodes in the Cytoscape network represent metabolites within the pathways and have been colored according to the Z-score. The Z-score was computed as the arithmetic difference between the mean concentration of each metabolite in the KO-Sur treatment group and the KO-Sal control group, divided by the standard deviation in the controls. Node colors were arranged on a red-green color scale with green representing −2.00 Z-score, red representing +2.00 Z-score, and with a zero (0) Z-score represented as white.
Group means and standard error of the means (SEM) are reported. Behavioral data were analyzed by two-way ANOVA and one-way ANOVAs (GraphPad Prism 5.0d, GraphPad Software Inc., La Jolla, Calif., USA, or Stata/SE v12.1, StataCorp, College Station, Tex., USA). Pair-wise post hoc testing was performed by the method of Tukey or Newman-Keuls. Significance was set at p<0.05.
For `C[n+]1cccc(C(N)=O)c1` [1-Methylnicotinamide], the “VIP Score, metabolites changed by antipurinergic therapy” value (shortened to “VIP Score, metabolites changed”) was 3.4567.
In the case of `O=C(O)C(COP(=O)(O)O)OP(=O)(O)O` (stereo not shown) [2,3-Diphosphoglyceric acid], the “VIP Score, metabolites changed” value is reported as 2.6413.
For `CCCCCCCCC=CC=CCC(=O)OC(CC(=O)[O-])C[N+](C)(C)C` (stereo not shown) [3,5-Tetradecadiencarnitine], the “VIP Score, metabolites changed” value was 2.0594.
In the case of `Cc1cccc(CC(=O)O)c1` [3-methylphenylacetic acid], the “VIP Score, metabolites changed” value is reported as 1.6055.
In the case of `O=C(O)C(O)Cc1ccc(O)cc1` (stereo not shown) [4-hydroxyphenyllactic acid], the “VIP Score, metabolites changed” value is reported as 2.9524.
For `CC(C)CCC[C@@H](C)[C@H]1CC[C@H]2[C@@H]3CC[C@H]4C[C@@H](O)CC[C@]4(C)[C@H]3CC[C@]12C` [5-alpha-Cholestanol], the “VIP Score, metabolites changed” value was 1.6542.
For `CCCCC/C=C\C/C=C\CC1OC1C/C=C\CCCC(=O)O` (stereo not shown) [8,9-Epoxyeicosatrienoic acid], the “VIP Score, metabolites changed” value was 1.8643.
In the case of `C=CCCCCCCCC(=O)OC(CC(=O)[O-])C[N+](C)(C)C` (stereo not shown) [9-Decenoylcarnitine], the “VIP Score, metabolites changed” value is reported as 1.6702.
In the case of `CCCCCCC=CCCCCCCCC(=O)OC(CC(=O)[O-])C[N+](C)(C)C` (stereo not shown) [9-Hexadecenoylcarnitine], the “VIP Score, metabolites changed” value is reported as 1.5637.
With `CCCCC/C=C\C=C\[C@H](O)C/C=C\C/C=C\CCCC(=O)O` [11(R)-HETE] the “VIP Score, metabolites changed” value was 1.5384.
In the case of `CCCCC/C=C\CC(O)C(O)C/C=C\C/C=C\CCCC(=O)O` (stereo not shown) [11,12-DiHETrE], the “VIP Score, metabolites changed” value is reported as 1.5284.
For `CCCCCC(O)C=CC1OC(=O)CC(O)C1CC=CCCCC(=O)O` (stereo not shown) [11-Dehydro-thromboxane B2], the “VIP Score, metabolites changed” value was 3.0285.
With `CCCCCC1OC1CC=CCC=CCC=CCCCC(=O)O` (stereo not shown) [14,15-epoxy-5,8,11-eicosatrienoic acid] the “VIP Score, metabolites changed” value was 1.9964.
In the case of `CCCCCCCCCCCCC/C=C/[C@@H](O)[C@H](CO)NC(=O)CCCCCCCCCCCCCCCCCCCCCCCCC` [Ceramide (d18:1/26:0)], the “VIP Score, metabolites changed” value is reported as 1.7619.
For `C[C@H](CCC(=O)O)[C@H]1CC[C@H]2[C@@H]3[C@H](O)C[C@@H]4C[C@H](O)CC[C@]4(C)[C@H]3C[C@H](O)[C@]12C` [Cholic acid], the “VIP Score, metabolites changed” value was 1.8062.
For `N[C@@H](CCC(=O)N[C@@H](CSSC[C@H](N)C(=O)O)C(=O)NCC(=O)O)C(=O)O` [Cysteineglutathione disulfide], the “VIP Score, metabolites changed” value was 2.2284.
In the case of `Nc1ccn([C@@H]2O[C@H](CO)[C@@H](O)[C@H]2O)c(=O)n1` [Cytidine], the “VIP Score, metabolites changed” value is reported as 1.5738.
For `C[C@]12CC[C@H](OS(=O)(=O)O)CC1=CC[C@@H]1[C@@H]2CC[C@]2(C)C(=O)CC[C@@H]12` [Dehydroisoandrosterone 3-sulfate], the “VIP Score, metabolites changed” value was 1.5627.
In the case of `CCCCCCCCCCCC(=O)O[C@H](CC(=O)[O-])C[N+](C)(C)C` [Dodecanoylcarnitine], the “VIP Score, metabolites changed” value is reported as 1.6983.
With `O=C(OP(=O)(O)O)C(O)COP(=O)(O)O` (stereo not shown) [Glyceric acid 1,3-biphosphate] the “VIP Score, metabolites changed” value was 1.6112.
With `Nc1nc2c(ncn2[C@@H]2O[C@H](CO)[C@@H](O)[C@H]2O)c(=O)[nH]1` [Guanosine] the “VIP Score, metabolites changed” value was 4.1962.
With `CCCCCC(=O)OC(CC(=O)O)C[N+](C)(C)C.[Cl-]` (stereo not shown) [Hexanoylcarnitine] the “VIP Score, metabolites changed” value was 2.766.
For `CC(C)C[C@H](O)C(=O)O` [Hydroxyisocaproic acid], the “VIP Score, metabolites changed” value was 1.6696.
In the case of `O=c1[nH]cnc2nc[nH]c12` [Hypoxanthine], the “VIP Score, metabolites changed” value is reported as 6.9083.
In the case of `OC[C@H]1O[C@@H](n2cnc3c(O)ncnc32)[C@H](O)[C@@H]1O` [Inosine], the “VIP Score, metabolites changed” value is reported as 6.3985.
For `N[C@@H](CCS(=O)(=O)O)C(=O)O` [L-Homocysteic acid], the “VIP Score, metabolites changed” value was 1.6739.
With `N[C@@H](CSSC[C@H](N)C(=O)O)C(=O)O` [L-cystine] the “VIP Score, metabolites changed” value was 2.8156.
For `CCCCC/C=C\C[C@@H](O)/C=C/C=C/C=C\[C@@H](O)CCCC(=O)O` [LTB4], the “VIP Score, metabolites changed” value was 4.7929.
With `O=CCC=O` [Malondialdehyde] the “VIP Score, metabolites changed” value was 2.0928.
In the case of `CCCCCCCCCCCCCC(=O)O[C@H](CC(=O)[O-])C[N+](C)(C)C` [Myristoylcarnitine], the “VIP Score, metabolites changed” value is reported as 1.8395.
In the case of `CCCCCCCC(=O)O[C@H](CC(=O)O)C[N+](C)(C)C` [Octanoylcarnitine], the “VIP Score, metabolites changed” value is reported as 1.7888.
For `O=C(O)CC(=O)C(=O)O` [Oxaloacetic acid], the “VIP Score, metabolites changed” value was 1.5682.
In the case of `CCCCCCCCCCCCCCCC(=O)OCC(COP(=O)(O)OCC(O)CO)OC(=O)CCCCCCCCCCCCCCC` (stereo not shown) [PG(16:0/16:0)], the “VIP Score, metabolites changed” value is reported as 1.7575.
With `C[N+](C)(C)C[C@@H](CC(=O)[O-])OC(=O)CCCCCC(=O)O` [Pimelylcarnitine] the “VIP Score, metabolites changed” value was 1.7778.
With `CCC(=O)O` [Propionic acid] the “VIP Score, metabolites changed” value was 1.6633.
With `Cc1ncc(CO)c(CN)c1O` [Pyridoxamine] the “VIP Score, metabolites changed” value was 1.5335.
In the case of `O=C(CO)[C@@H](O)[C@H](O)[C@H](O)[C@H](O)COP(=O)(O)O` [Sedoheptulose 7-phosphate], the “VIP Score, metabolites changed” value is reported as 1.5159.
For `Cc1cn([C@H]2C[C@H](O)[C@@H](COP(=O)(O)OP(=O)(O)OC3O[C@H](CO)[C@@H](O)[C@H](O)[C@H]3O)O2)c(=O)[nH]c1=O` (stereo partly drawn) [dTDP-D-glucose], the “VIP Score, metabolites changed” value was 2.1762.
In the case of Bismonoacylphospholipid (18:1/18:0), the “VIP Score, metabolites changed” value is reported as 1.6108.
For Bismonoacylphospholipid (18:1/18:1), the “VIP Score, metabolites changed” value was 2.0984.
For Cardiolipin (24:1/24:1/24:1/14:1), the “VIP Score, metabolites changed” value was 1.9754.
For Ceramide (d18:1/16:0 OH), the “VIP Score, metabolites changed” value was 2.4973.
For Ceramide (d18:1/20:1), the “VIP Score, metabolites changed” value was 1.5607.
For Ceramide (d18:1/24:0 OH), the “VIP Score, metabolites changed” value was 2.6743.
With Ceramide (d18:1/24:1) the “VIP Score, metabolites changed” value was 2.6984.
With Dihexosylceramide (18:1/20:0) the “VIP Score, metabolites changed” value was 2.5094.
With Dihexosylceramide (18:1/24:1) the “VIP Score, metabolites changed” value was 2.7087.
With Dodecenoylcarnitine the “VIP Score, metabolites changed” value was 1.7435.
With PC (18:0/20:3) the “VIP Score, metabolites changed” value was 2.087.
With PE (38:5) the “VIP Score, metabolites changed” value was 1.5338.
With PI (26:1) the “VIP Score, metabolites changed” value was 2.5143.
For Trihexosylceramide 18:1/16:0, the “VIP Score, metabolites changed” value was 2.2984.
With Trihexosylceramide 18:1/22:0 the “VIP Score, metabolites changed” value was 2.1755.
For Trihexosylceramide 18:1/24:0, the “VIP Score, metabolites changed” value was 1.8222.
For Trihexosylceramide 18:1/24:1, the “VIP Score, metabolites changed” value was 1.9105.
